Measured values reported in US12251385B2, “Covalent inhibitors of menin-MLL interaction for diabetes mellitus” (BIOMEA FUSION, INC., priority 2021, dated 2025).
At least one compound was matched to its structure with a doubt left.

How the values were obtained:
[1] = test system: Streptozotocin-induced Rat (STZ); assay: STZ rat model, 16 days dosing (Example 105); type: in vivo; conditions: STZ rats; Compound 10 175 mg/kg, pioglitazone 30 mg/kg QD; p<0.05
Protocol: ZDF rats were treated daily with Compound 10, vehicle, or pioglitazone for sixteen days and monitored for an additional two weeks post-treatment until Day 29. STZ rat models were induced through pre-treatment of animals on a high-fat diet with low doses of streptozotocin at Day −14 and Day −7 prior to starting treatment at Day Zero until Day 16. ZDF and STZ rats were monitored for fasting blood glucose levels, oral glucose tolerance test (OGTT), insulin and C-peptide levels, HOMA-IR (Homeostatic Model Assessment of Insulin Resistance), blood lipemic levels, and body weight according to the schematic for each model below. ZDF rats were analyzed for indicated readouts for fifteen days post-treatment for OGTT at Day 29, and serum insulin and C-peptide at Day 31.
STZ Rat Model—three treatment groups 1. Vehicle; 2. Compound 10 at 175 mg/kg; and 3. Pioglitazone at 30 mg/kg; n=10 per group. Fourteen-day STZ pretreatment prior to dosing. Daily dosing zero to sixteen days QD. Rats were monitored for the following parameters through dosing—body weight, blood glucose levels, and OGTT.

[2] = test system: Type 2 Diabetes Mellitus (T2DM) Zucker Diabetic Fatty Rat model; assay: Glycemic control in ZDF rats, 28 days treatment plus 28 days post-treatment (Example 104); type: in vivo; conditions: 28 days daily treatment, Day 29, FIG. 12
Protocol: Rats were treated daily with Compound 10, liraglutide, or vehicle for twenty-eight days and monitored for an additional twenty-eight days post-treatment.

| SMILES | OGTT AUC reduction, Day 15 [1] | absolute reduction in HbA1C versus vehicle [2] [%] |
| --- | --- | --- |
| CCc1ccc(CCOc2ccc(CC3SC(=O)NC3=O)cc2)nc1 (centres unmarked) [pioglitazone, reference compound] | not and no change | – |
| CCCCCCCCCCCCCCCC(=O)N[C@@H](CCC(=O)NCCCC[C@H](NC(=O)[C@H](C)NC(=O)[C@H](C)NC(=O)[C@H](CCC(N)=O)NC(=O)CNC(=O)[C@H](CCC(=O)O)NC(=O)[C@H](CC(C)C)NC(=O)[C@H](Cc1ccc(O)cc1)NC(=O)[C@H](CO)NC(=O)[C@H](CO)NC(=O)[C@@H](NC(=O)[C@H](CC(=O)O)NC(=O)[C@H](CO)NC(=O)[C@@H](NC(=O)[C@H](Cc1ccccc1)NC(=O)[C@@H](NC(=O)CNC(=O)[C@H](CCC(=O)O)NC(=O)[C@H](C)NC(=O)[C@@H](N)Cc1cnc[nH]1)[C@@H](C)O)[C@@H](C)O)C(C)C)C(=O)N[C@@H](CCC(=O)O)C(=O)N[C@@H](Cc1ccccc1)C(=O)N[C@H](C(=O)N[C@@H](C)C(=O)N[C@@H](Cc1c[nH]c2ccccc12)C(=O)N[C@@H](CC(C)C)C(=O)N[C@H](C(=O)N[C@@H](CCCNC(=N)N)C(=O)NCC(=O)N[C@@H](CCCNC(=N)N)C(=O)NCC(=O)O)C(C)C)[C@@H](C)CC)C(=O)O [liraglutide, reference compound] | – | 1.7 |
